# Publication PMC4022905
# Chains of the proteins cited; added tags and fusions are not shown. Residues count along the entry.
# UniProt Q96F46, residues 33-320: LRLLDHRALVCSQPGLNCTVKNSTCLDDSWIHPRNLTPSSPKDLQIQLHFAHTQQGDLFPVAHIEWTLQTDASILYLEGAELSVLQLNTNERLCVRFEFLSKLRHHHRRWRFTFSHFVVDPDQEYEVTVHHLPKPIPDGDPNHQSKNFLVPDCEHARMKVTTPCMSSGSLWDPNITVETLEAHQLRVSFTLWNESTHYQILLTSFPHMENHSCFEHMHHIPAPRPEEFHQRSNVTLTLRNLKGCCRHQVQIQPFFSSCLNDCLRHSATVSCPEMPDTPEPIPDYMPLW
# UniProt Q16552, residues 24-155: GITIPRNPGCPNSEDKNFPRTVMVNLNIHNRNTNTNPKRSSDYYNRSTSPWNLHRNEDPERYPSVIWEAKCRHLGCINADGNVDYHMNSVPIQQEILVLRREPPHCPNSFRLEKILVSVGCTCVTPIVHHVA
# These are yes or no findings as the source states them, for the method shown. Some binding calls cover weakened binding; strength is not graded here.
# Target: IL-17-receptor (IL-17R)-Fc fusion, commercially available (UniProt Q96F46)
# Experiment: ELISA; competition ELISA; IL-17R-Fc coated on Maxisorp plates at 0.6 ug/ml; different concentrations of the Fc fusions pre-incubated with 2.5 nM biotinylated IL-17A and added to the wells; bound IL-17A detected with streptavidin-HRP; both purified
substance,measurement,value
biotinylated human interleukin-17A (IL-17A) (from UniProt Q16552 24-155),binding,binds
